# Laboratory results as given in PubChem BioAssay (NCATS).
# The chains behind the UniProt entries cited, without tags or fusion partners. Where a name states a change or a piece, a line headed by the entry shows the natural chain unless it says otherwise.
# UniProt P08684, whole entry, looked up: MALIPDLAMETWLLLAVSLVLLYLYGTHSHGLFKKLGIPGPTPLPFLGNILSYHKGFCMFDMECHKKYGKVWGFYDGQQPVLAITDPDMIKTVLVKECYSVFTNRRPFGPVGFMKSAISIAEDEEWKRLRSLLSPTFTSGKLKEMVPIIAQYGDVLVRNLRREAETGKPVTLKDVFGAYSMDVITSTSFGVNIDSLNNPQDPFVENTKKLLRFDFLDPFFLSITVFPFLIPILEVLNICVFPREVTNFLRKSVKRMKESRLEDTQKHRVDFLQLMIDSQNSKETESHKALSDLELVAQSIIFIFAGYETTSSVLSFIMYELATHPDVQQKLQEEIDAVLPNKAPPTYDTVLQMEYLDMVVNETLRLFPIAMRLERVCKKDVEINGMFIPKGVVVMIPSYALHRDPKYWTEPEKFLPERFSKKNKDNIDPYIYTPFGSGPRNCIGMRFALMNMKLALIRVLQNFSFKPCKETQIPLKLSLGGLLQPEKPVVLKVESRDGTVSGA
# UniProt O75469: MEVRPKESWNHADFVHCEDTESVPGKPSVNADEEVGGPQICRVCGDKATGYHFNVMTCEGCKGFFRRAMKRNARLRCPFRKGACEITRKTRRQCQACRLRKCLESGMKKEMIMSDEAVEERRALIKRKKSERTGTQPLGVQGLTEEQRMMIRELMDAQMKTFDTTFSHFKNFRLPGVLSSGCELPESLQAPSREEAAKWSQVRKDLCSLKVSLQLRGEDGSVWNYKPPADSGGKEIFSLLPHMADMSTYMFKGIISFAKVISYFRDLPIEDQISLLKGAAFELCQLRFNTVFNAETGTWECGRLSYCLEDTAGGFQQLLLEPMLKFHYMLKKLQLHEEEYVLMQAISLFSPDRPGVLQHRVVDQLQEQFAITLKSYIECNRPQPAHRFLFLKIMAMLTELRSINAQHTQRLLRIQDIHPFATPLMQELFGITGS
# The inconclusive results got no clear call from the source; some entries with a clear call stand among them for comparison. Potencies of inconclusive entries are doubtful fits and often do not repeat. Active and inactive are the calls of the source. Unless noted, calls follow the shape of the dose curve; as a rule, active = well fitted curve in the direction sought with a large enough effect; inconclusive = small, poorly fitted or top-dose-only effect, or another doubt; inactive = no such curve, though single readings can be large; an effect the other way counts as inactive or inconclusive.
# Experiments:
# [1] = Quantitative High-Throughput drug screen in 47 multiple myeloma cell lines against the NCATS MIPE library collection: PCM6_Riken cell viability assay (AID 1919870); settings: CellTiter-Glo ATP, 48 h; viability (% of control): at 45.8 µM (top of the series); also: potency is read from the fitted curve at half-maximal effect; nearly all actives have a fitted effect of over 30% in size
# How it was run: (§1)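 MIPE 4.0 approved/investigational drugs; 500 cells/well; 48 h 37 °C humidified 5% CO2; CTG luminescence readout; DMSO = 100%, media = 0% viability.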
# [2] = Quantitative High-Throughput drug screen in 47 multiple myeloma cell lines against the NCATS MIPE library collection: KMS11_JCRBsus cell viability assay (AID 1919873); also: nearly all actives have a fitted effect of over 50% in size; also: potency is read from the fitted curve at half-maximal effect;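 as to viability (% of control): 100% = DMSO-only wells and 0% = media-only wells without cells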
# How it was run: as §1
# [3] = Quantitative High-Throughput drug screen in 47 multiple myeloma cell lines against the NCATS MIPE library collection: KMS28BM_JCRB cell viability assay (AID 1919874); also: nearly all actives have a fitted effect of over 35% in size; also: potency is read from the fitted curve at half-maximal effect
# How it was run: as §1
# [4] = qHTS for identification of novel therapeutic agents for treatment of microphthalmiaassociated transcription factor (MiT) renal cell carcinoma (RCC) (AID 1963991; calls by dose curve; also: potency is read from the fitted curve at half-maximal effect); settings: TFE3-RCC UOK109 viability, CellTiter-Glo, 48 h; active = Z-AUC below -0.8 in all three lines
# How it was run: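 Three TFE3-fusion RCC lines (UOK109, UOK124, UOK145), 500 cells/well in complete medium, were treated with MIPE 4.0 compounds for 48 hours at 37 C. Viability was by CellTiter-Glo luminescence, normalized to DMSO (100%) and empty wells (0%); curves fitted over 11 concentrations.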
# [5] = Quantitative High-Throughput drug screen in 47 multiple myeloma cell lines against the NCATS MIPE library collection: RPMI8226_ATCC cell viability assay (AID 1919871); also: nearly all actives have a fitted effect of over 30% in size; also: potency is read from the fitted curve at half-maximal effect
# How it was run: as §1
# [6] = Quantitative High-Throughput drug screen in 47 multiple myeloma cell lines against the NCATS MIPE library collection: UTMC2_PLB cell viability assay (AID 1919868); settings: CellTiter-Glo ATP luminescence, 48 h; viability (% of DMSO control): at 45.8 µM (top of the series); also: nearly all actives have a fitted effect of over 55% in size; also: potency is read from the fitted curve at half-maximal effect;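 as to viability (% of DMSO control): 100% = DMSO-only wells and 0% = media-only wells without cells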
# How it was run: as §1
# [7] = Quantitative High-Throughput drug screen in 47 multiple myeloma cell lines against the NCATS MIPE library collection: OPM2_DSMZ cell viability assay (AID 1919872); also: nearly all actives have a fitted effect of over 30% in size; also: potency is read from the fitted curve at half-maximal effect
# How it was run: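 Steps: seed 500 cells per well; pin-transfer MIPE 4.0 library; incubate 48 h at 37C, 5% CO2, humidified; add CellTiter-Glo, 5 min room temperature; read luminescence.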
# [8] = Quantitative High-Throughput drug screen in 47 multiple myeloma cell lines against the NCATS MIPE library collection: PE2_PLB cell viability assay (AID 1919869); also: potency is read from the fitted curve at half-maximal effect; nearly all actives have a fitted effect of over 35% in size
# How it was run: as §1
# [9] = biological target: Cytochrome P450 3A4 (Homo sapiens) (UniProt P08684); assay: qHTS for inhibitors of CYP3A4 against the NCATS DSHEA and TCM libraries (AID 1919971); settings: recombinant CYP3A4 enzyme activity, luminescence qHTS; also: potency is read from the fitted curve at half-maximal effect
# How it was run: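 Read-out is luminescence after P450-Glo detection (30 min, RT). Before that: 15 min compound–enzyme preincubation, then 30-45 min reaction with 1x NADPH regeneration solution, substrate concentration isoform-specific.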
# [10] = biological target: Nuclear receptor subfamily 1 group I member 2 (Homo sapiens) (UniProt O75469); assay: Dual reporter qHTS for agonist of Pregnane X Receptor (hPXR) against the NCATS DSHEA and TCM libraries: Luminescence readout (AID 1920059); settings: hPXR dual reporter cells, luciferase luminescence agonist; also: potency is read from the fitted curve at half-maximal effect
# How it was run: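 hPXR-LucHepG2 cells in phenol red-free DMEM with 5% charcoal-stripped FBS, 2000 cells/well, attached 5 h, then exposed 24 h at 37C to compounds; rifampicin as positive agonist control (2.8 nM–92 uM). Luciferase luminescence read.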
# [11] = Dual reporter qHTS for antagonist of Pregnane X Receptor (hPXR) against the NCATS DSHEA and TCM libraries: Fluorescence Readout (AID 1920061); settings: PXR dual reporter cells, antagonist mode
# How it was run: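 hPXR-Luc HepG2 cells exposed 24 h at 37 C to compounds with 2 uM rifampicin in antagonist mode; luciferase luminescence measured by ONE-Glo, with CellTiter-Fluor viability read beforehand.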
smiles,measurement,setting,value
Cc1c(C)n(Cc2ccc(-c3ccccc3C(=O)O)cc2)c2ccc(C(=O)N[C@@H](C)c3ccc([N+](=O)[O-])cc3)cc12,Potency,[1],"inconclusive: 1.32 µM [cytotoxic, full curve, poor fit]"
same,Potency,[2],active: 18.7 µM
same,Potency,[3],"inconclusive: 14.8 µM [cytotoxic, partial curve]"
same,Potency,[4],"inconclusive: 1.66 µM [falling, full curve]"
N#Cc1c(N(CC(=O)O)CC(=O)O)sc(C(=O)O)c1CC(=O)O,Potency,[1],"inconclusive: 33.2 µM [cytotoxic, single point]"
same,Potency,[5],inactive
same,Potency,[2],"inconclusive: 33.2 µM [cytotoxic, single point]"
same,Potency,[3],inactive
CC[C@H](C=C[C@@H](C)[C@H]1CC[C@H]2[C@@H]3CC=C4C[C@@H](O)CC[C@]4(C)[C@@H]3CC[C@]12C)C(C)C,Potency,[6],inactive
same,Potency,[3],"inconclusive: 5.12 µM [cytotoxic, single point]"
CC[C@@H]([C@H](C)O)n1ncn(-c2ccc(N3CCN(c4ccc(OCC5CO[C@@](Cn6cncn6)(c6ccc(F)cc6F)C5)cc4)CC3)cc2)c1=O (stereo not given in full),Potency,[6],"inconclusive: 0.0053 µM [rising, full curve, poor fit]"
same,Potency,[5],"inconclusive: 18.7 µM [cytotoxic, partial curve]"
same,Potency,[7],"inconclusive: 18.7 µM [cytotoxic, partial curve]"
same,Potency,[3],"inconclusive: 20.9 µM [cytotoxic, partial curve]"
same,Potency,[4],"inconclusive: 23.5 µM [falling, partial curve]"
Cc1nc2n(c(=O)c1CCN1CCC(c3noc4cc(F)ccc34)CC1)CCCC2,Potency,[6],"inconclusive: 0.526 µM [rising, full curve, poor fit]"
same,Potency,[2],inactive
same,Potency,[3],inactive
O=C(O)C1=CC(O)C(O)[C@H](O)C1 (stereo not given in full),Potency,[6],"inconclusive: 0.0105 µM [rising, full curve, poor fit]"
same,Potency,[5],inactive
same,Potency,[3],inactive
CCC1=C(C)CN(C(=O)NCCc2ccc(S(=O)(=O)NC(=O)NC3CCC(C)CC3)cc2)C1=O (stereo not given),Potency,[6],"inconclusive: 0.132 µM [rising, full curve]"
same,Potency,[3],inactive
CCOC(=O)C=C[C@H](C[C@@H]1CCNC1=O)NC(=O)[C@@H](CC(=O)[C@@H](NC(=O)c1cc(C)on1)C(C)C)Cc1ccc(F)cc1,Potency,[6],"inconclusive: 26.4 µM [rising, single point]"
same,Potency,[2],inactive
same,Potency,[3],"inconclusive: 20.9 µM [rising, partial curve, poor fit]"
O=c1cc(-c2ccc(O)c(O)c2)oc2cc(O)cc(O)c12,Potency,[8],"inconclusive: 33.2 µM [cytotoxic, single point]"
same,Potency,[7],"inconclusive: 0.0935 µM [rising, full curve, poor fit]"
same,Potency,[9],"inconclusive: 5.01 µM [inhibitor, full curve]"
same,Potency,[10],"inconclusive: 31.6 µM [activator, partial curve]"
same,Potency,[11],"inconclusive: 28.2 µM [inhibitor, partial curve]"
same,Potency,[4],"inconclusive: 16.6 µM [falling, partial curve]"
O=c1[nH]cnc2c1ncn2[C@H]1CC[C@@H](CO)O1,Potency,[6],"inconclusive: 33.2 µM [rising, single point]"
same,Potency,[2],inactive
same,Potency,[3],"inconclusive: 26.4 µM [rising, single point]"
CN1[C@H]2CC[C@H]1CC(OC(=O)c1c[nH]c3ccccc13)C2 (stereo not given in full),Potency,[6],inactive
same,Potency,[2],inconclusive: 0.001 µM
same,Potency,[3],"inconclusive: 4.18 µM [cytotoxic, full curve, poor fit]"
same,Potency,[4],"inconclusive: 14.8 µM [falling, partial curve]"
Clc1ccc(COC(Cn2ccnc2)c2ccc(Cl)cc2Cl)cc1 (stereo not given),Potency,[6],"inconclusive: 29.6 µM [cytotoxic, partial curve, poor fit]"
same,Potency,[5],"inconclusive: 23.5 µM [cytotoxic, single point]"
same,Potency,[3],"inconclusive: 26.4 µM [cytotoxic, single point]"
O=C(c1cncc(Br)c1)N1CCC(N2CCCC2)CC1,Potency,[6],"inconclusive: 0.148 µM [rising, partial curve, poor fit]"
same,Potency,[7],inactive
same,Potency,[3],inactive
Cn1c(=O)c2[nH]cnc2n(C)c1=O,Potency,[5],inactive
same,Potency,[2],inactive
N#Cc1cc(NC(=O)Nc2nnc(-c3ccncc3)s2)ccc1-c1cn[nH]c1,Potency,[2],inactive
same,Potency,[3],inactive
same,Potency,[4],inconclusive: 18.7 µM
CCCCCCCCCCCCCCCC(=O)OC[C@@H](NC(=O)C(Cl)Cl)[C@H](O)c1ccc([N+](=O)[O-])cc1,Potency,[6],"inconclusive: 4.18 µM [rising, partial curve, poor fit]"
same,Potency,[5],"inconclusive: 0.296 µM [rising, full curve, poor fit]"
same,Potency,[3],"inconclusive: 0.0021 µM [rising, full curve, poor fit]"
CC1(C)CCC[C@@]2(C)[C@@H]1CC[C@@]1(C)OC(=O)C[C@H]21,Potency,[6],"inconclusive: 0.0662 µM [rising, full curve, poor fit]"
same,Potency,[2],"inconclusive: 33.2 µM [cytotoxic, single point]"
same,Potency,[3],"inconclusive: 23.5 µM [cytotoxic, partial curve, poor fit]"
same,Potency,[4],inconclusive: 16.6 µM
CCNC(=O)Nc1ccc2ncc(Nc3ccc(C)cc3)nc2n1,Potency,[6],"inconclusive: 11.8 µM [cytotoxic, partial curve, poor fit]"
same,Potency,[5],"inconclusive: 18.7 µM [cytotoxic, partial curve, poor fit]"
same,Potency,[3],"inconclusive: 20.9 µM [cytotoxic, partial curve]"
same,Potency,[4],"inconclusive: 6.62 µM [falling, partial curve, poor fit]"
NC[C@@H]1O[C@@H](O[C@H]2[C@@H](O)[C@H](O[C@@H]3[C@@H](O)[C@@H](N)C[C@H](N)[C@H]3O[C@H]3O[C@H](CN)[C@@H](O)[C@@H](O)[C@H]3N)O[C@H]2CO)[C@H](N)[C@@H](O)[C@@H]1O,Potency,[6],inactive
same,Potency,[7],inactive
same,Potency,[3],inactive
COc1ccc(C(=O)CC(=O)c2ccc(C(C)(C)C)cc2)cc1,Potency,[3],active: 7.43 µM
same,Potency,[4],"inconclusive: 2.96 µM [falling, full curve]"
COC1CCC(N(C(=O)C2CCC(C)CC2)c2cc(C3=CCCCC3)sc2C(=O)O)CC1 (stereo not given),viability (% of DMSO control),[6],active: 89.9%
same,Potency,[5],inactive
same,Potency,[2],"inconclusive: 0.235 µM [cytotoxic, full curve, poor fit]"
same,Potency,[3],inactive

# Copied from the entries so far for reference:
smiles,measurement,setting,value
CN1[C@H]2CC[C@H]1CC(OC(=O)c1c[nH]c3ccccc13)C2 (stereo not given in full),Potency,[4],"inconclusive: 14.8 µM [falling, partial curve]"
Clc1ccc(COC(Cn2ccnc2)c2ccc(Cl)cc2Cl)cc1 (stereo not given),Potency,[6],"inconclusive: 29.6 µM [cytotoxic, partial curve, poor fit]"
same,Potency,[5],"inconclusive: 23.5 µM [cytotoxic, single point]"
